# According to PubChem BioAssay (EPA / NIEHS):
# Sequences of proteins named here, by UniProt entry; tags and fusion partners are left off. A change or cut given only in a name is not applied to a line headed by its entry.
# UniProt Q2NNR5: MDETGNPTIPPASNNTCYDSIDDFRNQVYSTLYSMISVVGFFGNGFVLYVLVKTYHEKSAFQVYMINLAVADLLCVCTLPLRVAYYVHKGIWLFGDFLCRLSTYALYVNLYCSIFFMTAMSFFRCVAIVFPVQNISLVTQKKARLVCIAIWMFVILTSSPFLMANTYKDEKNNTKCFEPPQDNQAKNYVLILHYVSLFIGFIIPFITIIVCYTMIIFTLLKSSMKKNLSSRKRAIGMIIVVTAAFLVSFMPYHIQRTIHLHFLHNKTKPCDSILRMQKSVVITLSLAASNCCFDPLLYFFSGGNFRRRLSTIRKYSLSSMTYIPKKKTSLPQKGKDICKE
# UniProt P28223, whole entry, looked up: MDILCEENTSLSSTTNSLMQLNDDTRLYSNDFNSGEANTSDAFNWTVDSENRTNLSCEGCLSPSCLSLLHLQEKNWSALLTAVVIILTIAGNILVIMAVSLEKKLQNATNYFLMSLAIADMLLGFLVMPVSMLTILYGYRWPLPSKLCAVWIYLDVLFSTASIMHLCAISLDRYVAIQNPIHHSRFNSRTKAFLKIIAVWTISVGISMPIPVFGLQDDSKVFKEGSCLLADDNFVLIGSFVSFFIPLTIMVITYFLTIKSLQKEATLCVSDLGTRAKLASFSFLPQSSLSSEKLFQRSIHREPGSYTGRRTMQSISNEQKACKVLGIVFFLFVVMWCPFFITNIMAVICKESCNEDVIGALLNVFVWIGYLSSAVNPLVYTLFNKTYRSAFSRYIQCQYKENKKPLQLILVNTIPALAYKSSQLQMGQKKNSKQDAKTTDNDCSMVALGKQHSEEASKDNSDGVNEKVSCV
# Where “and” joins values, the source holds several entries; their conditions need not be identical. Equal entries are not always repeated. This list was built around the results that the source calls inconclusive (neither active nor inactive); the mix of calls is not that of the screen. Potencies of inconclusive entries are doubtful fits and often do not repeat. Calls of active or inactive are those of the source. The calls were made as follows: active = hit-call score of the fitted dose curve at least 0.9, where 1 is the maximum; inconclusive = response in the unintended direction; inactive = score below 0.9.
# Target: guinea pig Leukotriene D4 Receptor (LTD4), CYSLTR1 (gene 100135514) (UniProt Q2NNR5)
# Experiment: NVS_GPCR_gLTD4: NovaScreen (NVS) G Protein-Coupled Receptor Assay for guinea pig Leukotriene D4 Receptor (LTD4) (AID 2283248)
# Outline: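 Guinea pig lung membrane preparation; bound radioligand measured by filter scintillation after 1 h, loss of signal versus DMSO marking displacement. Compounds tested at 25 uM in duplicate, hits retested to max 50 uM.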
Structure (SMILES),outcome,AC50
C#CCOS(=O)OC1CCCCC1Oc1ccc(C(C)(C)C)cc1 (centres undefined),inactive,–
CC(=O)[O][Hg][c]1ccccc1,–,active: 1.58 µM
CS(=O)(=O)c1ccc(C(=O)C2C(=O)CCCC2=O)c([N+](=O)[O-])c1,–,inconclusive: 44.5 µM
C=CCC1=C(C)C(OC(=O)C2C(C=C(C)C)C2(C)C)CC1=O (centres undefined),inactive,–
CC1(C)Cc2cccc(O)c2O1,–,inconclusive: 0.0472 µM

# Target: human Serotonin, 5-Hydroxytryptamine Receptor 2A (5HT2A), HTR2A (gene 3356) (UniProt P28223)
# Experiment: NVS_GPCR_h5HT2A: NovaScreen (NVS) G Protein-Coupled Receptor Assay for human Serotonin, 5-Hydroxytryptamine Receptor 2A (5HT2A) (AID 2283249)
# Outline: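 Radioligand displacement on human cortex tissue extract, counted by filtration and scintillation 1.5 h post-dosing. Initial single-concentration screen at 25 uM in duplicate, concentration series in follow-up; DMSO as baseline.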
row,Structure (SMILES),AC50
1,N#CC(CCc1ccc(Cl)cc1)(Cn1cncn1)c1ccccc1 (centres undefined),inconclusive: 4.96 µM
2,Cc1ccc(O)cc1C,inconclusive: 25.6 µM
3,Oc1ccc2ccc3cccc4ccc1c2c34,inconclusive: 31.6 µM
4,Oc1cc(Cl)ccc1Oc1ccc(Cl)cc1Cl,inconclusive: 25.5 µM
5,Oc1ccc(C(c2ccc(O)cc2)(C(F)(F)F)C(F)(F)F)cc1,active: 10.4 µM
6,CC1=C2C[C@H]3[C@@H](CC=C4C[C@@H](O)CC[C@@]43C)[C@@H]2CC[C@]12O[C@@H]1C[C@H](C)CN[C@H]1[C@H]2C,inconclusive: 12.5 µM
7,COC(=O)C(C)Oc1ccc(Oc2ccc(Cl)cc2Cl)cc1 (centres undefined),inconclusive: 25 µM and inconclusive: 44.5 µM and inconclusive: 15.7 µM
8,CC12CC1(C)C(=O)N(c1cc(Cl)cc(Cl)c1)C2=O (centres undefined),inconclusive: 0.073 µM

# Test system: guinea pig Muscarinic, Peripheral (Mperiperal) Receptor, Non-selective Binding, gene 100379235
# Experiment: NVS_GPCR_gMPeripheral_NonSelective: NovaScreen (NVS) G Protein-Coupled Receptor Assay for guinea pig Muscarinic, Peripheral (Mperiperal) Receptor, Non-selective Binding (AID 2283250)
# Outline: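 Screened in duplicate at 25 uM, hits retested in concentration series to 50 uM max, using bladder membrane radioligand displacement from guinea pig. Filtration and scintillation counting 1 h post-dose, fitted relative to DMSO.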
Structure (SMILES),AC50,outcome
O=C(Oc1ccc(Br)cc1)N1CCN2CCC1CC2,active: 15 µM,–
O=C1c2ccccc2C(=O)N1SC(Cl)(Cl)Cl,–,inactive
CCOc1cc(Oc2ccc(C(F)(F)F)cc2Cl)ccc1[N+](=O)[O-],inconclusive: 25 µM,–
O=C(N[C@H]1CN2CCC1CC2)c1cc2ccoc2cn1,–,inactive
CO/C=C(/C(=O)OC)c1ccccc1Oc1cc(Oc2ccccc2C#N)ncn1,–,inactive
CN1CSC(=S)N(C)C1,inconclusive: 25 µM,–
Cc1ccc([N+](=O)[O-])cc1,inconclusive: 25 µM,–
CCOc1nc(F)cc2nc(S(=O)(=O)Nc3c(Cl)cccc3Cl)nn12,–,inactive
CCOC(=O)COc1cc(-c2nn(C)c(OC(F)F)c2Cl)c(F)cc1Cl,–,inactive
CCc1cccc(CC)c1N(COC)C(=O)CCl,inconclusive: 25 µM,–
Cc1ccn2nc(S(=O)(=O)Nc3c(F)cccc3F)nc2n1,–,inactive

# Part of the list above, as tab-separated lines:
Structure (SMILES)	AC50	outcome
O=C(Oc1ccc(Br)cc1)N1CCN2CCC1CC2	active: 15 µM	–
O=C1c2ccccc2C(=O)N1SC(Cl)(Cl)Cl	–	inactive
